Measured data: PubChem BioAssay AID1259276 (Sanger Institute, 2017)
Here is an unselected part of 794 reagents tested. 24 of them (3%) were called active. 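Calls come only from the siRNA-alone arm; drug synergy scores do not affect them.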 Reagents against one gene are numbered here. Viability is capped at 1. Reagent sequences are not shown. The record does not give: the amount of reagent, the time to read-out.

Assay: 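Kinome-wide search for kinases colon cancer cells need, and for drug partners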 (primary screen)
Cells: human C2BBe1 colorectal cancer cells
Reagent: siRNA pool against human genes
Conditions: DMSO vehicle, or one anchor drug: BYL719 at 1 µM, cetuximab at 5 µg/ml, or trametinib at 10 nM; exposure length not stated
Measurement: 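Cell viability as a fraction of non-targeting control wells, mean of replicates, also as a control-based robust z-score, plus a synergy score for each anchor drug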
Direction: viability robust z-score, siRNA alone and viability vs control, siRNA alone: higher = more viable cells after knock-down; synergy score with BYL719: higher = stronger combined killing with BYL719; synergy score with cetuximab: higher = stronger combined killing with cetuximab; synergy score with trametinib: higher = stronger combined killing with trametinib
Call rule: 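a siRNA pool tested without drug is essential if its viability robust z-score falls under -3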
Meaning of the calls: active = essential (siRNA alone); inactive = no change (siRNA alone)

Gene | pool no. | viability robust z-score, siRNA alone | viability vs control, siRNA alone | synergy score with BYL719 | synergy score with cetuximab | synergy score with trametinib | call
NR2F2 (nuclear receptor subfamily 2 group F member 2) | 1 | 0.472 | 1 | -0.0301 | 0.0662 | -0.0667 | inactive
CDKN2C (cyclin dependent kinase inhibitor 2C) | 1 | 0.472 | 1 | -0.142 | -0.0115 | -0.0667 | inactive
CAMK1 (calcium/calmodulin dependent protein kinase I) | 1 | 0.472 | 1 | -0.0685 | 0.014 | 0.203 | inactive
RPS6KA4 (ribosomal protein S6 kinase A4) | 1 | -1.07 | 0.902 | 0.0864 | -0.108 | -0.125 | inactive
DGUOK (deoxyguanosine kinase) | 1 | -0.765 | 0.922 | 0.22 | 0.0169 | -0.1 | inactive
CSNK1G1 (casein kinase 1 gamma 1) | 1 | 0.472 | 1 | 0.0861 | -0.0115 | -0.0667 | inactive
MKNK2 (MAPK interacting serine/threonine kinase 2) | 1 | -0.599 | 0.932 | -0.056 | -0.0646 | -0.13 | inactive
CKS2 (CDC28 protein kinase regulatory subunit 2) | 1 | 0.472 | 1 | -0.142 | -0.0115 | -0.0667 | inactive
MAP4K1 (mitogen-activated protein kinase kinase kinase kinase 1) | 1 | 0.472 | 1 | 0.131 | -0.0115 | 0.051 | inactive
PHKG1 (phosphorylase kinase catalytic subunit gamma 1) | 1 | 0.472 | 1 | -0.061 | -0.0115 | -0.0667 | inactive
ACVR1C (activin A receptor type 1C) | 1 | 0.472 | 1 | -0.0535 | -0.0115 | -0.0667 | inactive
UCKL1 (uridine-cytidine kinase 1 like 1) | 1 | 0.472 | 1 | 0.235 | -0.0115 | -0.0667 | inactive
CREBBP (CREB binding lysine acetyltransferase) | 1 | 0.472 | 1 | 0.129 | -0.0115 | -0.0667 | inactive
STK35 (serine/threonine kinase 35) | 1 | 0.472 | 1 | -0.00546 | 0.0252 | -0.0334 | inactive
MINK1 (misshapen like kinase 1) | 1 | 0.472 | 1 | 0.125 | -0.0115 | -0.0667 | inactive
CDC42BPA (CDC42 binding protein kinase alpha) | 1 | -1.93 | 0.848 | -0.00117 | -0.0725 | -0.0234 | inactive
PRP4K (pre-mRNA processing factor kinase PRP4K) | 1 | 0.472 | 1 | 0.182 | 0.000824 | -0.0667 | inactive
RPS6KA2 (ribosomal protein S6 kinase A2) | 1 | -1.88 | 0.851 | 0.159 | -0.0909 | -0.205 | inactive
BRD3 (bromodomain containing 3) | 1 | 0.472 | 1 | 0.0218 | -0.0115 | -0.0667 | inactive
PKLR (pyruvate kinase L/R) | 1 | 0.472 | 1 | -0.0214 | 0.0878 | -0.0667 | inactive
STK36 (serine/threonine kinase 36) | 1 | 0.472 | 1 | 0.12 | -0.00946 | -0.0667 | inactive
ASPM (assembly factor for spindle microtubules) | 1 | 0.472 | 1 | 0.193 | 0.196 | 0.0262 | inactive
EFNA5 (ephrin A5) | 1 | 0.472 | 1 | -0.142 | -0.0115 | -0.0667 | inactive
DLG2 (discs large MAGUK scaffold protein 2) | 1 | 0.472 | 1 | -0.142 | -0.0115 | -0.0667 | inactive
PRPS2 (phosphoribosyl pyrophosphate synthetase 2) | 1 | 0.472 | 1 | -0.12 | 0.117 | -0.0667 | inactive
PAK3 (p21 (RAC1) activated kinase 3) | 1 | 0.472 | 1 | 0.119 | 0.0881 | -0.0239 | inactive
NRK (Nik related kinase) | 1 | -1.48 | 0.877 | -0.136 | -0.00547 | -0.0655 | inactive
PKIB (cAMP-dependent protein kinase inhibitor beta) | 1 | -1 | 0.907 | -0.0261 | -0.102 | 0.0491 | inactive
IDH2 (isocitrate dehydrogenase (NADP(+)) 2) | 1 | -3.7 | 0.737 | -0.281 | -0.0971 | -0.29 | active
PRKD1 (protein kinase D1) | 1 | 0.472 | 1 | 0.12 | -0.00896 | -0.0667 | inactive
EPHA3 (EPH receptor A3) | 1 | -0.676 | 0.928 | 0.109 | -0.083 | -0.134 | inactive
PIK3R3 (phosphoinositide-3-kinase regulatory subunit 3) | 1 | 0.472 | 1 | -0.142 | -0.0115 | 0.154 | inactive
ROS1 (ROS proto-oncogene 1, receptor tyrosine kinase) | 1 | 0.472 | 1 | 0.18 | 0.0861 | 0.237 | inactive
SRPK2 (SRSF protein kinase 2) | 1 | 0.472 | 1 | -0.049 | 0.18 | 0.177 | inactive
NTRK1 (neurotrophic receptor tyrosine kinase 1) | 1 | 0.472 | 1 | 0.269 | 0.23 | 0.12 | inactive
BCOR (BCL6 corepressor) | 1 | 0.472 | 1 | -0.0957 | -0.0115 | -0.0667 | inactive
NPR2 (natriuretic peptide receptor 2) | 1 | 0.472 | 1 | -0.142 | 0.557 | -0.0667 | inactive
PANK2 (pantothenate kinase 2) | 1 | 0.472 | 1 | -0.142 | 0.0199 | -0.0667 | inactive
ILK (integrin linked kinase) | 1 | 0.472 | 1 | 0.0742 | 0.043 | -0.0667 | inactive
ILK (integrin linked kinase) | 2 | 0.472 | 1 | -0.0337 | 0.0318 | -0.0574 | inactive
PDK1 (pyruvate dehydrogenase kinase 1) | 1 | 0.472 | 1 | -0.142 | -0.0115 | -0.0667 | inactive
NTRK2 (neurotrophic receptor tyrosine kinase 2) | 1 | -0.262 | 0.954 | -0.141 | -0.0572 | -0.11 | inactive
GRK1 (G protein-coupled receptor kinase 1) | 1 | 0.472 | 1 | -0.135 | -0.0115 | -0.0667 | inactive
STK39 (serine/threonine kinase 39) | 1 | 0.472 | 1 | 0.168 | 0.112 | 0.206 | inactive
TGFBR2 (transforming growth factor beta receptor 2) | 1 | 0.472 | 1 | -0.11 | 0.0356 | -0.0667 | inactive
AKT3 (AKT serine/threonine kinase 3) | 1 | -1.14 | 0.898 | 0.213 | 0.0697 | 0.0644 | inactive
CDK3 (cyclin dependent kinase 3) | 1 | 0.472 | 1 | -0.106 | -0.0115 | -0.0269 | inactive
LMTK2 (lemur tail kinase 2) | 1 | -0.676 | 0.928 | 0.087 | -0.083 | -0.134 | inactive
FGR (FGR proto-oncogene, Src family tyrosine kinase) | 1 | 0.472 | 1 | 0.0848 | 0.273 | 0.154 | inactive
PHKA2 (phosphorylase kinase regulatory subunit alpha 2) | 1 | 0.472 | 1 | 0.129 | -0.0115 | -0.0667 | inactive
PRKAB2 (protein kinase AMP-activated non-catalytic subunit beta 2) | 1 | 0.472 | 1 | -0.0566 | -0.0115 | 0.0586 | inactive
ROR1 (ROR family WNT receptor 1) | 1 | 0.472 | 1 | 0.0611 | 0.0116 | 0.0948 | inactive
CSNK1G3 (casein kinase 1 gamma 3) | 1 | 0.472 | 1 | 0.0849 | -0.0115 | -0.0667 | inactive
LYN (LYN proto-oncogene, Src family tyrosine kinase) | 1 | 0.472 | 1 | -0.136 | -0.0115 | -0.0667 | inactive
EXOSC10 (exosome component 10) | 1 | 0.472 | 1 | -0.142 | -0.0115 | -0.0667 | inactive
PDIK1L (PDLIM1 interacting kinase 1 like) | 1 | -0.63 | 0.931 | 0.0352 | -0.0801 | -0.132 | inactive
PIK3C2A | 1 | 0.472 | 1 | 0.102 | 0.181 | -0.031 | inactive
STK17A (serine/threonine kinase 17a) | 1 | -0.175 | 0.959 | 0.285 | -0.0236 | -0.0647 | inactive
ADPGK (ADP dependent glucokinase) | 1 | 0.472 | 1 | 0.27 | -0.0115 | 0.0907 | inactive
FLT4 (fms related receptor tyrosine kinase 4) | 1 | 0.472 | 1 | -0.0338 | -0.0115 | -0.0667 | inactive
MAP2K7 (mitogen-activated protein kinase kinase 7) | 1 | -1.01 | 0.907 | -0.0639 | 0.0105 | -0.154 | inactive
PNKP (polynucleotide kinase 3'-phosphatase) | 1 | 0.472 | 1 | 0.0353 | 0.049 | 0.0181 | inactive
MAP3K19 (mitogen-activated protein kinase kinase kinase 19) | 1 | 0.472 | 1 | 0.0567 | -0.0115 | 0.0228 | inactive

Laid out differently: results already given.
Gene	pool no.	viability robust z-score, siRNA alone	viability vs control, siRNA alone	synergy score with BYL719	synergy score with cetuximab	synergy score with trametinib	call
DGUOK (deoxyguanosine kinase)	1	-0.765	0.922	0.22	0.0169	-0.1	inactive
CSNK1G1 (casein kinase 1 gamma 1)	1	0.472	1	0.0861	-0.0115	-0.0667	inactive
MKNK2 (MAPK interacting serine/threonine kinase 2)	1	-0.599	0.932	-0.056	-0.0646	-0.13	inactive
CKS2 (CDC28 protein kinase regulatory subunit 2)	1	0.472	1	-0.142	-0.0115	-0.0667	inactive
MAP4K1 (mitogen-activated protein kinase kinase kinase kinase 1)	1	0.472	1	0.131	-0.0115	0.051	inactive
PHKG1 (phosphorylase kinase catalytic subunit gamma 1)	1	0.472	1	-0.061	-0.0115	-0.0667	inactive
